Experimental data from article PMC11151565.

B1: OsGF14c, full-length coding sequence in pGADT7 (protein, UniProt Q6ZKC0 1-256)
chain: MSREENVYMAKLAEQAERYEEMVEYMEKVAKTVDVEELTVEERNLLSVAYKNVIGARRASWRIVSSIEQKEEGRGNEEHVTLIKEYRGKIEAELSKICDGILKLLDSHLVPSSTAAESKVFYLKMKGDYHRYLAEFKTGAERKEAAESTMVAYKAAQDIALADLAPTHPIRLGLALNFSVFYYEILNSPDKACNLAKQAFDEAISELDTLGEESYKDSTLIMQLLRDNLTLWTSDLTEDGGDEVKEASKGDACEGQ
B2: OsGF14c, full-length coding sequence fused to an enhanced YFP fragment (BiFC) (protein, UniProt Q6ZKC0 1-256)
chain: MSREENVYMAKLAEQAERYEEMVEYMEKVAKTVDVEELTVEERNLLSVAYKNVIGARRASWRIVSSIEQKEEGRGNEEHVTLIKEYRGKIEAELSKICDGILKLLDSHLVPSSTAAESKVFYLKMKGDYHRYLAEFKTGAERKEAAESTMVAYKAAQDIALADLAPTHPIRLGLALNFSVFYYEILNSPDKACNLAKQAFDEAISELDTLGEESYKDSTLIMQLLRDNLTLWTSDLTEDGGDEVKEASKGDACEGQ

Experiments:
[1] = molecular target: OsFTL9 (Flowering Locus T-like 9), full-length coding sequence in pGBKT7 (O. sativa L. ssp. japonica (Nipponbare)); assay: two-hybrid; FTL9 or FTL10 in pGBKT7, FD1 or GF14c in pGADT7; yeast strain AH109; growth on SD/-Leu/-Trp/-His/-Ade after about 4 days at 30 °C
[2] = molecular target: OsFTL10 (Flowering Locus T-like 10), full-length coding sequence in pGBKT7 (O. sativa L. ssp. japonica (Nipponbare)); assay: as above
[3] = molecular target: OsFTL10, full-length coding sequence fused to an enhanced YFP fragment (BiFC) (O. sativa (rice)); assay: split reporter; BiFC with N- and C-terminal enhanced YFP fragments, transiently co-expressed in N. benthamiana leaves; YFP read by confocal microscopy after 2-3 days; empty N-YFP and C-YFP vectors as negative controls

| Binder | binding [1] | binding [2] | binding [3] |
| --- | --- | --- | --- |
| B1 | no binding | binds |  |
| B2 |  |  | binds |

Results are given in words; binding and its absence hold for the method and conditions named. For part of these data: A result given as binding can be weak or reduced; the word gives no strength. For part of these data: Binding seen in cells or lysates may run through a third protein. For part of these data: Sequences can lack the tags named with a protein.
